PubChem BioAssay AID1347075 (National Center for Advancing Translational Sciences (NCATS), 2019)
Among all 400,000 compounds or so, about 5,500 (1.4%) were called active. This list was built around the results that the source calls inconclusive (neither active nor inactive); the mix of calls is not that of the screen. Calls come from the whole dose curve; as a rule, active = well fitted cell-killing curve with a large enough effect; inconclusive = small, poorly fitted or top-dose-only effect, or effect the other way; inactive = flat fitted curve, though single readings scatter. Potencies beside an inconclusive call are fits to weak or partial responses and may not hold up.
% is set by controls: 0 for no effect and ±100 for the full control effect; potency is the fitted concentration of half-maximal effect.

Assay: qHTS assay for MDR1-selective chemotherapeutics: Primary screen using the parental adenocarcinoma cell KB-3-1; note: nearly all actives have a fitted effect of over 60% in size
Details: KB-3-1 viability, CellTiter-Glo ATP luminescence, 72 h; activity change, negative = cytotoxic: at 46.1 µM (top of the series)
In short: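 Cells are dispensed, compounds pinned in, plates held at 37 °C for 72 h, then CellTiter-Glo is added and luminescence read after 10 minutes. Cell line: parental KB-3-1 in phenol-red-free DMEM, 10% FBS.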
In the case of `CCCc1cc(-c2n[nH]c(=S)n2CC)c2ccccc2n1`, the Potency is reported as inconclusive: 14.6 µM [cytotoxic, partial curve, poor fit].
For `CCOCCn1c(=O)c2c(nc3n2CCCN3CCc2ccccc2)n(C)c1=O`, the Potency was inconclusive: 0.082 µM [rising, full curve].
For `CNc1ccc(/C=C/c2ccnc3ccccc23)cc1`, the Potency was inconclusive: 20.6 µM [cytotoxic, single point].
For `CC1(C(=O)Nc2ccc(Cl)cc2)Cc2c(-c3cccc(C(N)=O)c3)ccnc2O1` (stereo unspecified), the Potency was inconclusive: 7.31 µM [cytotoxic, partial curve, poor fit].
With `Fc1ccc(NC(=S)Nc2nccs2)cc1` the Potency was inconclusive: 23.1 µM [cytotoxic, single point].
For `C/C(CC1CC2=C(CC1(C)C)C(C)(C)CCC2)=N\NC(N)=S` (stereo unspecified), the “activity change, negative = cytotoxic” value was inactive: 0%.
For `O=C(Oc1c(Cl)cc(Cl)c2cccnc12)c1ccco1`, the Potency was inconclusive: 3.66 µM [cytotoxic, full curve, poor fit].
In the case of `O=C(Nc1nnc(C2=COCCO2)o1)c1cccc(Br)c1`, the Potency is reported as inconclusive: 20.6 µM [cytotoxic, single point].
For `CC(C)(C)c1ccc(S(=O)(=O)NCc2ccc(C(=O)NCc3ccccn3)cc2)cc1`, the Potency was inconclusive: 16.4 µM [cytotoxic, single point].
In the case of `O=C(Nc1c2c(nn1-c1ccc(F)cc1)CS(=O)(=O)C2)C12CC3CC(CC(C3)C1)C2`, the “activity change, negative = cytotoxic” value is reported as inactive: -0.107%.
In the case of `O=[N+]([O-])c1cccnc1N1CCN(c2ccccc2F)CC1`, the Potency is reported as inconclusive: 23.1 µM [cytotoxic, single point].
In the case of `Cc1cc(-c2ccccc2)nc(N/N=C/c2ccc(N(C)C)cc2)n1`, the “activity change, negative = cytotoxic” value is reported as inactive: -0.309%.
With `CN=C(Nc1cc(C)nn1-c1ccccc1)c1ccccc1F` the Potency was inconclusive: 20.6 µM [cytotoxic, single point].
With `COc1ccc(-c2cc(C(=O)Nc3cc(OC)c(OC)c(OC)c3)[nH]n2)c(C)c1` the Potency was inconclusive: 29.1 µM [cytotoxic, single point].
For `O=C(Nc1ccccc1C(F)(F)F)c1nc(S(=O)(=O)Cc2ccccc2F)ncc1Cl`, the Potency was inconclusive: 29.1 µM [cytotoxic, partial curve, poor fit].
In the case of `O=C(O)c1ccc(/C=N/NC(=O)c2cc3ccccc3cc2O)cc1`, the Potency is reported as inconclusive: 25.9 µM [rising, single point].
With `CCCCn1nnnc1C(c1ccccc1)N1CCN(c2ncccc2C(F)(F)F)CC1` (stereo unspecified) the Potency was inconclusive: 25.9 µM [cytotoxic, partial curve, poor fit].
For `CCCOc1ccc(C(=O)NC2CCSc3ccccc32)cc1` (stereo unspecified), the “activity change, negative = cytotoxic” value was inactive: 4.15%.
For `Cc1cccnc1NC(=O)c1ccc(Cl)c(S(=O)(=O)N2CCCCCC2)c1`, the activity change, negative = cytotoxic was inconclusive: -18.3%.
For `Cc1cccn2c(=O)c3cc(C(=O)NC4CCCCC4)n(C)c3nc12`, the Potency was inconclusive: 4.61 µM [cytotoxic, full curve, poor fit].
In the case of `CC(=O)c1ccc(NS(=O)(=O)c2cc3c(cc2C)N(C(C)=O)CCO3)cc1`, the “activity change, negative = cytotoxic” value is reported as inactive: -3.8%.
With `COc1cccc(CC(=O)Nc2nc(-c3ccc(F)c(F)c3)cs2)c1` the “activity change, negative = cytotoxic” value was inactive: -0.512%.
For `O=C(CCCN1C(=O)c2ccccc2C1=O)NCCCn1ccnc1`, the activity change, negative = cytotoxic was inconclusive: 33.8%.
For `CCOC(=O)C1=CN(Cc2cccc(F)c2)S(=O)(=O)N(CC)C1CCc1ccccc1` (stereo unspecified), the Potency was inconclusive: 29.1 µM [cytotoxic, single point].
For `CC(C)(C)c1ccc(C(=O)c2c[nH]c(C(=O)NCCCN3CCOCC3)c2)cc1`, the “activity change, negative = cytotoxic” value was inactive: 5.14%.
In the case of `N#C/C(C(=O)NCCc1ccccc1)=C1/N=C(NC(=O)c2cccs2)c2ccccc21`, the Potency is reported as inconclusive: 29.1 µM [cytotoxic, single point].
For `CC1(C)CC(=O)c2c(O)cc(OCC(=O)Nc3ccc(CCO)cc3)cc2O1`, the “activity change, negative = cytotoxic” value was inactive: -1.73%.
In the case of `Cc1cccc(OCC(=O)NCCc2nc3ccccc3[nH]2)c1C`, the “activity change, negative = cytotoxic” value is reported as inactive: 2.84%.
In the case of `CCc1cc2c(=O)n(Cc3ccco3)c(SCC(=O)NCC3CCCO3)nc2s1` (stereo unspecified), the Potency is reported as inconclusive: 11.6 µM [cytotoxic, partial curve].
For `COC(=O)Cc1nnc(SCC(=O)Nc2ccccc2)c2ccccc12`, the “activity change, negative = cytotoxic” value was inactive: 5.68%.
For `CCCOP(=O)(c1ccc(N(C)C)cc1)C(O)c1ccccc1OC` (stereo unspecified), the “activity change, negative = cytotoxic” value was inactive: 4.44%.
With `NC(=O)c1ccccc1OCC(=O)c1ccc(Cl)cc1` the Potency was inconclusive: 29.1 µM [cytotoxic, single point].
With `[O-][N+]1=c2ccc(Nc3ccccc3)cc2=NC12CCCCC2` the Potency was inconclusive: 23.1 µM [cytotoxic, single point].
With `Cc1c(C(=O)N2CCN(c3ncccn3)CC2)oc2ccc(Cl)cc12` the “activity change, negative = cytotoxic” value was inactive: -2%.
With `CC(C)Cn1cnc2c(SCc3ccccc3)nc(N)nc21` the “activity change, negative = cytotoxic” value was inactive: 5.56%.
With `Cn1nc(-c2ccncc2)nc2c(=O)n(C)c(=O)nc1-2` the Potency was active: 1.84 µM.
In the case of `CCN(CC)c1ccc(N2C(=O)/C(=C/c3ccccn3)SC2=S)cc1`, the “activity change, negative = cytotoxic” value is reported as inactive: 0.377%.
With `CC(=O)N1CCc2cc(S(=O)(=O)NC(CC(C)C)C(=O)NCc3ccccc3Cl)ccc21` (stereo unspecified) the Potency was inconclusive: 9.2 µM [rising, partial curve, poor fit].
For `COC(=O)[C@@]1(Cc2ccc(F)cc2)[C@H]2c3cc(C(=O)N(C)C)n(Cc4ccc(C)o4)c3C[C@H]2CN1C(=O)c1ccccc1`, the Potency was inconclusive: 18.4 µM [cytotoxic, single point].
In the case of `CN1CCN(c2ccccc2NC(=O)c2ccc(N3CCCC3)c([N+](=O)[O-])c2)CC1`, the “activity change, negative = cytotoxic” value is reported as inactive: -2.63%.
With `CCCCCOc1ccc(Cn2c(=O)oc3ccc(C)cc32)cc1OC` the “activity change, negative = cytotoxic” value was inactive: 2.55%.
For `COCCn1c(C)cc(C(=O)CSc2nc(C)nc3sc4c(c23)CCC4)c1C`, the Potency was inconclusive: 29.1 µM [cytotoxic, single point].
For `CCc1nc2c(OCc3cccc(Cl)c3)cccn2c1N(C)C(C)=O`, the Potency was inconclusive: 0.0073 µM [rising, full curve].
In the case of `COc1ccc(Br)cc1/C(C)=N/NC1=NCCN1`, the Potency is reported as inconclusive: 20.6 µM [cytotoxic, partial curve, poor fit].
With `COc1ccc(CCNC(=O)c2cc(-c3ccco3)on2)cc1OC` the Potency was active: 9.2 µM.
For `CCOC(CNC(=O)c1ccc(N2CCc3ccccc32)c([N+](=O)[O-])c1)OCC`, the Potency was inconclusive: 29.1 µM [cytotoxic, single point].
